{"source": "PubChem BioAssay AID1259307 – Sanger Institute – 2017", "test": "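Screen of kinase gene silencing for colorectal cancer cell killing and drug cooperation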 (primary screen)", "cell system": "SW620 colorectal cancer cells", "reagents": "siRNA pool against human genes", "challenge": "anchor drugs BYL719 at 1 µM, cetuximab at 5 µg/ml or trametinib at 10 nM, each beside a DMSO vehicle arm", "measurement": "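Per-well viability versus non-targeting control pool, replicate-averaged, robust z-score from controls; synergy scores for BYL719 1 µM, cetuximab 5 µg/ml, trametinib 10 nM against DMSO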", "scale": "viability robust z-score, no drug: higher = more viable cells", "hit rule": "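Essential when the viability robust z-score without drug is under -3; synergy scores are ignored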", "meaning of the calls": "active = essential (lethal alone); inactive = no change alone", "note": "The whole screen tested 794 reagents; this is an unselected part. In the full data, 15 (1.9%) got an active call. 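Calls reflect lethality without any drug; synergy scores did not enter the calls.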 Not all columns of the deposit are shown. Not stated in the record: the amount of reagent, the time to read-out."}
{"gene knocked down": "MECOM", "viability robust z-score, no drug": 0.736, "Call": "inactive"}
{"gene knocked down": "ARAF", "viability robust z-score, no drug": 0.61, "Call": "inactive"}
{"gene knocked down": "NR4A2", "viability robust z-score, no drug": -0.597, "Call": "inactive"}
{"gene knocked down": "FGFR3", "viability robust z-score, no drug": 0.0894, "Call": "inactive"}
{"gene knocked down": "TTK", "viability robust z-score, no drug": 0.508, "Call": "inactive"}
{"gene knocked down": "COQ8B", "viability robust z-score, no drug": 0.736, "Call": "inactive"}
{"gene knocked down": "WNK2", "viability robust z-score, no drug": 0.148, "Call": "inactive"}
{"gene knocked down": "CAMK2N1", "viability robust z-score, no drug": -2.94, "Call": "inactive"}
{"gene knocked down": "PDK1", "viability robust z-score, no drug": 0.542, "Call": "inactive"}
{"gene knocked down": "MSR1", "viability robust z-score, no drug": 0.736, "Call": "inactive"}
{"gene knocked down": "CASP8", "viability robust z-score, no drug": 0.736, "Call": "inactive"}
{"gene knocked down": "MAP3K5", "viability robust z-score, no drug": 0.288, "Call": "inactive"}
{"gene knocked down": "ROR1", "viability robust z-score, no drug": 0.425, "Call": "inactive"}
{"gene knocked down": "YES1", "viability robust z-score, no drug": 0.307, "Call": "inactive"}
{"gene knocked down": "NPR2", "viability robust z-score, no drug": -0.568, "Call": "inactive"}
{"gene knocked down": "CHD4", "viability robust z-score, no drug": -0.633, "Call": "inactive"}
{"gene knocked down": "FN3K", "viability robust z-score, no drug": 0.131, "Call": "inactive"}
{"gene knocked down": "DGKI", "viability robust z-score, no drug": 0.736, "Call": "inactive"}
{"gene knocked down": "EPHB6", "viability robust z-score, no drug": 0.243, "Call": "inactive"}
{"gene knocked down": "CDKL3", "viability robust z-score, no drug": 0.243, "Call": "inactive"}
{"gene knocked down": "MAP3K14", "viability robust z-score, no drug": -0.549, "Call": "inactive"}
{"gene knocked down": "MAP3K8", "viability robust z-score, no drug": -0.0228, "Call": "inactive"}
{"gene knocked down": "EFNA5", "viability robust z-score, no drug": 0.736, "Call": "inactive"}
{"gene knocked down": "ULK3", "viability robust z-score, no drug": -0.634, "Call": "inactive"}
{"gene knocked down": "CLK4", "viability robust z-score, no drug": -0.327, "Call": "inactive"}
{"gene knocked down": "BPTF", "viability robust z-score, no drug": -1.11, "Call": "inactive"}
{"gene knocked down": "STK35", "viability robust z-score, no drug": 0.736, "Call": "inactive"}
{"gene knocked down": "CAMK1", "viability robust z-score, no drug": 0.736, "Call": "inactive"}

Reformatted: results already given.
MAP3K8 → viability robust z-score, no drug: -0.0228; Call: inactive
EFNA5 → viability robust z-score, no drug: 0.736; Call: inactive
ULK3 → viability robust z-score, no drug: -0.634; Call: inactive
CLK4 → viability robust z-score, no drug: -0.327; Call: inactive
